According to patent US10905691B2, “Use of triazolo(4,5-d)pyrimidine derivatives for prevention and treatment of bacterial infection” (Universite de Liege, priority 2016, dated 2021):
Entries after “also recorded” stand apart in the source; their conditions may differ. At least one structure is not confirmed: it was looked up by name or label, or the drawing left a doubt.

Assays:
[1] = test system: Pseudomonas aeruginosa (ATCC 27853); test: MIC determination with or without C12(ω7)Kβ12 (OAK); assay type: cell-based; conditions: OAK (C12(ω7)Kβ12) alone at a concentration up to 10 μg/ml
Protocol: Determination of Minimal Inhibitory Concentration (MIC) of Triafluocyl (Cayman Chemical, Item No. 15425) in presence of C12(ω7)Kβ12 (provided by Custom synthesis Biomers Germany) against Pseudomonas aeruginosa (ATCC 27853).
A single colony of Pseudomonas aeruginosa grown on a Tryptic Soy agar (TSA) plate is resuspended and cultured in Tryptic Soy Broth (TSB) medium overnight (O/N) in aerobic conditions (37° C. with 190 rpm shaking in New Brunswick Innova 4200 Incubator Shaker). Next day the resulting inoculum is diluted again at 1:100 in Mueller-Hinton broth (MHB) and then incubated in aerobic conditions for 1 h30 (OD=0.08-0.1) to reach an exponential phase in the grown curve. […] Growth of Pseudomonas aeruginosa in each condition depicted in FIG. 15A is evaluated by reading the OD of each culture at 600 nm (OD600) in a spectrophotometer (Fisher Scientific, cell density meter model 40). […]
A single colony of Pseudomonas aeruginosa grown on a Tryptic Soy agar (TSA) plate is resuspended and cultured in Tryptic Soy Broth (TSB) medium overnight (O/N) in aerobic conditions (37° C. with 220 rpm shaking in New Brunswick Innova 4200 Incubator Shaker). […] Growth of Pseudomonas aeruginosa in each condition depicted in FIG. 16A is evaluated by reading the Optical Density of each culture at 600 nm (OD600) in a spectrophotometer (Fisher Scientific, cell density meter model 40).

[2] = test system: Escherichia coli (ATCC 8739); test: as above; assay type: cell-based; conditions: OAK alone at a concentration up to 10 μg/ml
From the text: Determination of Minimal Inhibitory Concentration (MIC) and Minimal Bactericidal Concentration (MBC) of Triafluocyl (purchased from Cayman Chemical, Item No. 15425) in presence of C12(ω7)Kβ12 (purchased from biomers.net, Germany) against Escherichia coli (ATCC 8739). The C12(ω7)Kβ12 was synthesized by solid-phase method as described by I. Radzishevsky in Antimicrobial Agents and Chemotherapy, May 2007 (1753-1759) (https://aac.asm.org/content/51/5/1753).
A single colony of Escherichia coli grown on a Luria-Bertani (LB) agar plate is resuspended and cultured in LB medium overnight (O/N) in aerobic conditions (37° C. with 220 rpm shaking in the New Brunswick Innova 4330 Shaker incubator). […] Growth of Escherichia coli in each condition depicted in FIG. 13A is evaluated by reading the Optical Density of each culture at 600 nm (OD600) in a spectrophotometer (Victor-3, Perkin Elmer). […]
A single colony of Escherichia coli grown on a Luria-Bertani (LB) agar plate is resuspended and cultured in LB medium overnight (O/N) in aerobic conditions (37° C. with 220 rpm shaking in the New Brunswick Innova 4330 Shaker incubator). […] Growth of Escherichia coli in each condition depicted in FIG. 14A is evaluated by reading the Optical Density of each culture at 600 nm (OD600) in a spectrophotometer (Victor-3, Perkin Elmer).

[3] = test system: E. faecalis VRE (ATCC BAA-2365); test: Killing curve (CFU counting); assay type: cell-based, Enterococcus faecalis; conditions: Triafluocyl 20 μg/ml; Minocycline 10 μg/ml; FIG. 8C
Protocol: E. faecalis VRE (ATCC BAA-2365) was grown overnight in brain heart infusion (BHI) medium, diluted 1:100 in fresh BHI, and incubated aerobically at 37° C. until bacteria growth reached a logarithmic phase (OD600=0.2-0.25).
Triafluocyl (Cayman Chemical, Item No. 15425) (20 μg/ml), Minocycline (Sigma, 10 μg/ml) or vehicle (DMSO) was then added in 5 ml of bacteria suspensions. Bacterial growth was measured after different time intervals by counting the colony-forming units after plating appropriate culture dilutions on BHI agar plates.

[4] = test system: S. aureus MRSA (ATCC BAA-1556); test: Killing curve (CFU counting); assay type: cell-based, Staphylococcus aureus; conditions: Triafluocyl 20 μg/ml
Protocol: S. aureus MRSA (ATCC BAA-1556) was grown overnight in brain heart infusion (BHI) medium, diluted 1:100 in fresh BHI, and incubated aerobically at 37° C. until bacteria growth reached a logarithmic phase (OD600=0.25-0.3).
Triafluocyl (Cayman Chemical, Item No. 15425) (20 μg/ml), Vancomycin (Sigma, 4 μg/ml or 10 μg/ml), Minocycline (Sigma, 8 μg/ml) or a solvent (DMSO) were added to 5 ml of S. aureus MRSA suspensions.
Bacterial growth for S. aureus MRSA was measured after different time intervals by counting the colony-forming units after plating appropriate culture dilutions on BHI agar plates.
S. aureus MRSA (ATCC BAA-1556) was grown overnight in BHI medium, then a 1:100 inoculum was diluted in fresh BHI and incubated aerobically at 37° C. until bacteria growth reached a logarithmic phase (OD600=0.25-0.3). The culture was split into two and challenged with 38 μM Fluometacyl (=18.2 μg/ml) or DMSO (Ctrl). Bacterial growth was measured after different time intervals by counting the colony-forming units after plating appropriate culture dilutions on BHI agar plates. (N=2)

In the case of `CCCCCC/C=C\CCCC(=O)NC(CCCCN)C(=O)NC(CCCCN)C(=O)NCCCCCCCCCCCC(=O)NC(CCCCN)C(N)=O` (stereo not drawn) [OAK, cis-7-dodecenoyl-lysyl-lysyl-aminododecanoyl-lysyl-amide, reference compound], the “inhibition of P. aeruginosa growth” value [1] is reported as “unable to inhibit P. aeruginosa growth” and the “inhibition of Escherichia coli growth” value [2] is reported as “unable to inhibit Escherichia coli growth; also recorded: unable to inhibit E. coli growth”.
In the case of `CN(C)c1ccc(O)c2c1C[C@H]1C[C@H]3[C@H](N(C)C)C(O)=C(C(N)=O)C(=O)[C@@]3(O)C(O)=C1C2=O` [Minocycline], the “antibacterial effect on E. faecalis VRE (killing curve)” value [3] is reported as “only bacteriostatic”, the “effect on S. aureus MRSA viable count after the first two hours” value ([4]; Vancomycin 10-fold MIC, Minocycline 8-fold MIC, FIG. 8A) is reported as “ineffective” and the “bactericidal effect over the 24 h-experiment compared with Triafluocyl” value ([4]; Vancomycin 4 or 10 μg/ml, Minocycline 8 μg/ml) is reported as “less efficient”.
